Measured values: PubChem BioAssay AID662 (National Center for Advancing Translational Sciences (NCATS), 2007)
The list shows a part of the results. Further columns of the screen follow, without active or inactive calls. The list favours compounds with an active or inconclusive main result. The note in brackets gives the kind of curve behind each potency; many fits are weak.

Assay: Cell signaling CRE-BLA (Fsk stim)
Conditions: CHO CRE-bla reporter (cAMP response element driving beta-lactamase), forskolin EC10, beta-lactamase ratio; measured here: 460 nm blue channel
Method in brief: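 Forskolin analogue NKH 477 at EC10 stimulated CRE-driven beta-lactamase in CHO cells alongside compound dilution series. Beta-lactamase was measured with CCF4, excitation 405 nm, emission ratio 460/530 nm.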

Compound | AC50
Cc1ccc(NS(=O)(=O)c2ccc(C)c(C(=O)N3CCN(C)CC3)c2)cc1 | 0.1 µM [falling, partial curve, poor fit]
Cc1cc2c(cc1C)-c1nnnn1C(C)(C)C2 | 12.6 µM [rising, single point]
O=S1(=O)c2cccc3cccc(c23)N1Cc1nnc(-c2ccccc2Br)o1 | 2 µM [rising, full curve]
O=C(Cn1c(=O)sc2ccccc21)N1CCOCC1 | 0.00316 µM [falling, full curve, poor fit]
CCN(CC)S(=O)(=O)c1cc(C(=O)Nc2ccccn2)ccc1C | 3.16 µM [falling, partial curve, poor fit]
Cc1cc2c(c(=O)n1CC1CCCO1)C(c1ccco1)C(C#N)=C(N)O2 (stereo not drawn) | 3.98 µM [rising, single point]
CCOC(=O)c1cc(-c2ccc(Cl)s2)nc2c1c(C)nn2C | 5.01 µM [rising, single point]
CC(=O)c1ccccc1OCCn1nnc(-c2ccc(C)cc2)n1 | 15.8 µM [rising, single point]
O=C(NCCN1CCN(c2ccccc2)CC1)c1cccn2c(=O)c3cc(Cl)ccc3nc12 | 0.00398 µM [rising, full curve, poor fit]
Cc1cc(C(=O)CSc2nnnn2-c2ccc(O)cc2)c(C)n1Cc1ccc2c(c1)OCO2 | 6.31 µM [falling, partial curve]
CCOC(=O)CCCCC(=O)c1[nH]c(=O)[nH]c1Cn1ccnc1 | 0.2 µM [falling, single point]
COc1ccccc1N1CCN(C(CNS(=O)(=O)c2ccccc2)c2cccnc2)CC1 (stereo not drawn) | 0.00316 µM [rising, full curve]
O=S(=O)(Nc1ccc(N2CCOCC2)nn1)c1ccccc1 | 5.01 µM [falling, single point]
CC(=O)c1ccc(NC(=O)N2CCN(c3cccc(Cl)c3)CC2)cc1 | 12.6 µM [falling, partial curve]
CC(=O)OCCNc1cc(N2CCN(C)CC2)c2noc3c2c1C(=O)c1ccccc1-3 | 10 µM [rising, partial curve]
COc1cccc(Nc2ncc3nc(-c4ccc(F)cc4)c(=O)n(C[C@H]4CCCO4)c3n2)c1 | 0.631 µM [rising, partial curve]
CCNc1ncc2nc(-c3ccc(Cl)cc3)c(=O)n(C)c2n1 | 3.16 µM [rising, partial curve]
COC(=O)c1cc(=O)n(Cc2ccc3c(c2)OCO3)c(=Nc2ccccc2)s1 | 2.51 µM [falling, full curve]
COc1cc(C(=O)OCC(=O)Nc2c(F)c(F)c(F)c(F)c2F)cc(OC)c1OC | 10 µM [rising, single point]
CC1(C)N(O)CC(c2cccs2)=[N+]1[O-] | 0.00398 µM [falling, full curve, poor fit]
Cn1c(C(=O)Nc2ccc3c(c2)OCO3)cc2sccc21 | 0.794 µM [falling, full curve]
CCOC(=O)c1c(C)oc2ccc(OCC(N)=O)cc12 | 12.6 µM [rising, single point]
CCOc1ccccc1NS(=O)(=O)c1c(C)noc1C | 10 µM [falling, partial curve]

3 structures already listed, arranged by heavy-atom count, rising.
Compound | AC50
CCOc1ccccc1NS(=O)(=O)c1c(C)noc1C | 10 µM [falling, partial curve]
CCOC(=O)c1cc(-c2ccc(Cl)s2)nc2c1c(C)nn2C | 5.01 µM [rising, single point]
COc1cc(C(=O)OCC(=O)Nc2c(F)c(F)c(F)c(F)c2F)cc(OC)c1OC | 10 µM [rising, single point]

The listing continues.

Compound | AC50
Brc1cccc(-c2nnc(SCc3ccon3)n2-c2ccccc2)c1 | 7.94 µM [rising, partial curve]
Cc1cc(C(F)F)n2ncc(C(=O)NC3CCCCCC3)c2n1 | 25.1 µM [rising, single point]
CC1=C(/C=C/C(C)=C/C=C/C(C)=C/C(=O)Nc2ccc(O)cc2)C(C)(C)CCC1 | 15.8 µM [falling, partial curve]
C[C@H](NC(=O)Nc1ccccc1F)C(=O)O | 5.01 µM [falling, full curve]
COC(=O)c1ccc(OC)c(CSc2nnc(COc3ccc(Cl)cc3)o2)c1 | 3.98 µM [rising, single point]
CCc1c(C)nc2ncnn2c1N1CCCC(C(=O)NCc2ccc3c(c2)OCO3)C1 (stereo not drawn) | 10 µM [rising, partial curve]
O=C(NCCCN1CCOCC1)c1cc(-c2ccc(Br)cc2)on1 | 0.501 µM [falling, partial curve]
O=C(CSc1nnc(-c2cccc(S(=O)(=O)N3CCCCC3)c2)o1)c1ccc[nH]1 | 5.01 µM [falling, single point]
CNc1nc(-c2ccoc2)nc2ccccc12 | 3.98 µM [rising, full curve]
COCCn1c(SCC(=O)Nc2ncc(Cl)c(C)c2Cl)nc2ccccc21 | 5.01 µM [rising, partial curve]
COc1cccc(/C=N/n2c(SC)nnc2-c2ccccc2)c1O | 10 µM [rising, partial curve]
CCCOC(=O)c1ccc(Oc2c(-c3ccc(OCC)cc3O)n[nH]c2C)cc1 | 15.8 µM [falling, single point]
O=S(=O)(c1ccccc1)c1nc(-c2ccco2)oc1NCCCn1ccnc1 | 15.8 µM [rising, partial curve]
CCC(=O)Nc1cccc(NC(=O)c2cc3ccccc3o2)c1 | 25.1 µM [falling, single point]
Cc1cc(S(=O)(=O)NCCN(C)C)c(C)s1 | 10 µM [rising, partial curve]
CCOC(=O)c1oc2ccccc2c1NC(=O)c1cc(OC)cc(OC)c1 | 12.6 µM [rising, partial curve]
Cc1cc(NC(=O)CSc2nc3c(c(=O)n2-c2ccc(Br)cc2)SCC3)no1 | 3.98 µM [rising, single point]
Cc1cccc2nc(=S)n(C(=O)c3ccco3)n12 | 25.1 µM [rising, single point]
COC(=O)C1=CN(C)C=C(C(=O)OC)C1c1ccc(Cl)cc1Cl | 12.6 µM [rising, partial curve]
COc1ccc(CCNC(=O)C2CCN(C(=O)N(C)C)CC2)cc1OC | 25.1 µM [rising, single point]
O=C(C1CC1)N1CCc2cc(S(=O)(=O)NCCC3=CCCCC3)ccc21 | 12.6 µM [rising, single point]
CCc1ccc2c(c1)c1nc(C)sc1n2CC | 6.31 µM [falling, full curve, poor fit]
COC(=O)c1ccc(COC(=O)c2c(C)nn(Cc3ccccc3Cl)c2Cl)o1 | 25.1 µM [falling, single point]

Compound | AC50
Cn1c(=O)c(=O)n(C)c2cc(S(=O)(=O)N3CCc4ccccc43)ccc21 | 2 µM [falling, single point]
N#Cc1c(C(F)(F)F)cc(-c2ccco2)nc1SCc1ccccn1 | 12.6 µM [rising, partial curve]
COc1ccc(S(=O)(=O)N2CC(O)CC2C(=O)OCC(=O)Nc2ccc(Cl)cn2)cc1 (stereo not drawn) | 3.98 µM [falling, partial curve, poor fit]
c1ccc2c(c1)nc(NC1CCCCC1)c1nncn12 | 12.6 µM [rising, partial curve]
CCCCCn1c(=NC(C)=O)c(C#N)cc2c(=O)n3cccc(C)c3nc21 | 5.01 µM [rising, partial curve]
COc1ccc(CCNC(=O)CCN2C(=O)C3CC=CCC3C2=O)cc1OC (stereo not drawn) | 25.1 µM [rising, single point]
Cn1c(SCc2nc3ccccc3[nH]2)nnc1-c1cccnc1 | 25.1 µM [rising, single point]
COc1ccc(N2CCN(C(=O)c3ccc(NS(=O)(=O)c4ccc(F)cc4)cc3)CC2)cc1 | 5.01 µM [falling, single point]
CC1CC(C)(C)Nc2ccc(OC(=O)c3ccco3)cc21 (stereo not drawn) | 12.6 µM [falling, single point]
Cc1cccc(NC(=O)CCN2C(=O)C3C4C=CC(C4)C3C2=O)n1 (stereo not drawn) | 0.0501 µM [falling, full curve, poor fit]
CCN1c2ccccc2-c2nc3ccccc3n2C1c1ccncc1 (stereo not drawn) | 7.94 µM [rising, partial curve]
CCCc1cc(N2CCCC2)n2nc(C)c(-c3ccccc3)c2n1 | 1.26 µM [rising, full curve]
CC(=O)c1c(COC(=O)c2ccco2)nc2ccccc2[n+]1[O-] | 15.8 µM [falling, partial curve]
CCOC(=O)c1cnc(-n2nc(C)cc2C)nc1N(CC)CC | 25.1 µM [rising, single point]
O=S(=O)(c1cccs1)N1CN(CC2CCCO2)c2nc3ccccc3nc21 (stereo not drawn) | 1.26 µM [rising, full curve]
O=c1cc(CSc2nnc(COc3ccc(Cl)cc3)o2)c2ccccc2[nH]1 | 10 µM [rising, single point]
COc1ccc(CNC(=O)C(C#N)c2nc3ccccc3nc2N2CCN(C)CC2)cc1 (stereo not drawn) | 0.316 µM [rising, full curve]
O=c1oc2c(CN3CCCCCC3)c(O)ccc2cc1-c1nc2ccccc2[nH]1 | 7.94 µM [rising, partial curve]
Cc1nc2cncnc2n(Cc2ccccc2)c1=O | 12.6 µM [rising, single point]
Cc1ccc(-c2nc(NC(=O)CSc3nnc4scc(-c5ccccc5)n34)ns2)cc1 | 3.16 µM [rising, full curve]
CC(C)c1cc(C(N)=O)c(NC(=O)C2CCC2)s1 | 12.6 µM [rising, partial curve]
O=C(Nc1ccc(Cl)cc1C(=O)NCC1CCCO1)c1ccco1 (stereo not drawn) | 12.6 µM [rising, single point]

Part of the list above, in markdown:

| Compound | AC50 |
| --- | --- |
| O=S(=O)(c1cccs1)N1CN(CC2CCCO2)c2nc3ccccc3nc21 (stereo not drawn) | 1.26 µM [rising, full curve] |
| O=c1cc(CSc2nnc(COc3ccc(Cl)cc3)o2)c2ccccc2[nH]1 | 10 µM [rising, single point] |
